Source: PubChem BioAssay
Values joined by “and” are separate entries in the source; they are usually repeats but may differ in a detail not shown here. Equal values may be shown once. The list shows a part of the results. The main result of the screen is listed elsewhere. These columns were measured beside it and carry no call. For part of these data: Compounds called inactive in the main read-out are mostly missing here.

Assays:
[1] = PubChem AID 1586; conditions: yeast two-hybrid polyglutamine protein interaction, reporter readout; measured here: averaged growth delta OD
[2] = enhancers of SMN2 over SMN1 splicing, cell-based, SMN2/SMN1 luciferase reporters (AID 1598); conditions: SMN2 vs SMN1 luciferase splicing reporter cells, at 10 µM; SMN1 luciferase ratio: measured here: SMN1 luciferase reporter average; SMN2 luciferase ratio: measured here: SMN2 luciferase reporter average, stronger effect = higher value
[3] = protection against mutant huntingtin cytotoxicity, PC12 cells, LDH release (AID 1610); conditions: PC12 mutant huntingtin toxicity, final LDH at 4 uM, stronger effect = lower value

| SMILES | signal change (36 h minus 0 h) [1] | SMN1 luciferase ratio [2] | SMN2 luciferase ratio [2] | normalised LDH release [3] |
| --- | --- | --- | --- | --- |
| NS(=O)(=O)c1cc(C2(O)NC(=O)c3ccccc32)ccc1Cl (stereo not given) | 0.0898 | 0.91 | 0.93 | 1 |
| CCN(CC)CCOC(=O)C(c1ccccc1)c1ccccc1 | 0.106 | 0.92 | 1.02 | 0.975 |
| C1CNCCN1 | 0.0139 | 0.92 | 0.88 | 1.1 |
| C#C[C@]1(O)CCC2C3CCC4=CC(=O)CC[C@@H]4C3CC[C@@]21CC (stereo not given in full) | 0.187 | 0.91 | 0.84 | 0.883 |
| Nc1cc(-c2ccncc2)c[nH]c1=O | 0.194 | 0.78 | 0.84 | 0.95 |
| Cc1cc(O)cc(C)c1Cl | 0.067 | 0.94 | 0.88 | 1.01 |
| CC(N)C(O)c1cccc(O)c1 (stereo not given) | 0.144 | 0.85 | 0.97 | 0.768 |
| NCCNC(=O)c1ccc(Cl)cc1 | 0.0946 | 0.85 | 0.88 | 1.1 |
| C[C@H](CCC(=O)O)[C@H]1CCC2C3C(CC[C@@]21C)[C@@]1(C)CC[C@@H](O)C[C@H]1C[C@@H]3O (stereo not given in full) | 0.195 | 0.92 | 1.05 | 0.625 |
| Cc1ccc(/C(=C\CN2CCCC2)c2ccccn2)cc1 | 0.128 | 0.89 | 1 | 1.05 |
| CC(=O)N[C@@H](Cc1c[nH]c2ccccc12)C(N)=O | 0.17 | 0.9 | 0.94 | 0.616 |
| CCN(CC)CCOC(=O)C(c1ccccc1)C1CCCCC1 (stereo not given) | 0.231 | 0.96 | 0.91 | 1.14 |
| Nc1ccc(C(=O)O)c(O)c1 (tested in a mixture with another compound) | 0.0954 | 0.84 | 0.84 | 0.666 |
| N#Cc1ccc2c(c1)N(CCCN1CCC(O)CC1)c1ccccc1S2 | 0.0531 | 0.83 | 0.81 | 0.828 |
| CNC[C@H](O)c1cccc(O)c1 | 0.16 | 0.94 | 0.82 | 0.777 |
| C1CCC(C(CC2CCCCN2)C2CCCCC2)CC1 (stereo not given) | 0.0694 | 0.91 | 0.81 | 1.06 |
| CN(C)CCCN1c2ccccc2Sc2ccccc21 | 0.193 | 0.81 | 0.85 | 0.863 |
| Nc1ncnc2c1ncn2C1O[C@H](COP(=O)(O)O)[C@@H](O)[C@H]1O (stereo not given in full) | 0.205 | 0.9 | 1 | 0.928 |
| CCN(CC)CC(=O)Nc1c(C)cccc1C | 0.198 | 0.87 | 0.88 | 1.08 |
| CNC[C@@H](O)c1ccc(O)c(O)c1 | 0.0631 | 0.93 | 0.87 | 0.881 |
| CC(C)(C)NC[C@@H](O)COc1nsnc1N1CCOCC1 | 0.222 | 0.87 | 1 | 0.89 |
| CC12CC3CC(C)(C1)CC(N)(C3)C2 | 0.0866 | 0.82 | 1.01 | 0.753 |
| CN(C)CCOC(c1ccccc1)c1ccccc1 (tested in a mixture with another compound) | 0.174 | 0.87 | 0.9 | 0.865 |
| Clc1cccc(Cl)c1NC1=NCCN1 | 0.0743 | 0.94 | 0.93 | 0.697 |
| CCOC(=O)[C@H](CCc1ccccc1)N[C@@H](C)C(=O)N1Cc2ccccc2C[C@H]1C(=O)O | 0.109 | 0.95 | 0.95 | 0.789 |

Nothing new here: entries from further up.

| SMILES | signal change (36 h minus 0 h) [1] | SMN1 luciferase ratio [2] | SMN2 luciferase ratio [2] | normalised LDH release [3] |
| --- | --- | --- | --- | --- |
| C1CNCCN1 | 0.0139 | 0.92 | 0.88 | 1.1 |
| C#C[C@]1(O)CCC2C3CCC4=CC(=O)CC[C@@H]4C3CC[C@@]21CC (stereo not given in full) | 0.187 | 0.91 | 0.84 | 0.883 |
| Nc1cc(-c2ccncc2)c[nH]c1=O | 0.194 | 0.78 | 0.84 | 0.95 |
| Cc1cc(O)cc(C)c1Cl | 0.067 | 0.94 | 0.88 | 1.01 |
| CC(N)C(O)c1cccc(O)c1 (stereo not given) | 0.144 | 0.85 | 0.97 | 0.768 |
| NCCNC(=O)c1ccc(Cl)cc1 | 0.0946 | 0.85 | 0.88 | 1.1 |
| C[C@H](CCC(=O)O)[C@H]1CCC2C3C(CC[C@@]21C)[C@@]1(C)CC[C@@H](O)C[C@H]1C[C@@H]3O (stereo not given in full) | 0.195 | 0.92 | 1.05 | 0.625 |

Continuation.

| SMILES | signal change (36 h minus 0 h) [1] | SMN1 luciferase ratio [2] | SMN2 luciferase ratio [2] | normalised LDH release [3] |
| --- | --- | --- | --- | --- |
| C[C@]12CCC3c4ccc(OC(=O)CCC(=O)O)cc4CCC3C1CCC2=O (stereo not given in full) | 0.0735 | 0.93 | 0.83 | 0.972 |
| O=C(O)CCCCCCCC(=O)O | 0.203 | 0.85 | 1 | 0.712 |
| C=C1C(=O)O[C@@H]2C3OC3(C)CC/C=C(\C)CC[C@@H]12 (stereo not given in full) | 0.09 | 0.8 | 0.88 | 0.571 |
| Nc1nc(=S)c2[nH]cnc2[nH]1 | 0.0752 | 0.64 | 0.67 | 0.887 |
| C=C(C)[C@H]1CC=C(C(=O)O)CC1 | 0.084 | 0.89 | 0.89 | 0.791 |
| CN[C@@H]1C(O)[C@@H](O[C@@H]2[C@@H](O)[C@H](O[C@H]3OC(CN)=CC[C@H]3N)[C@@H](N)C[C@H]2N)OC[C@]1(C)O (stereo not given in full) | 0.141 | 0.92 | 0.86 | 0.322 |
| CCCc1cc(=O)[nH]c(=S)[nH]1 | 0.0646 | 0.87 | 0.88 | 0.848 |
| NC(=O)c1ccc[n+]([C@@H]2O[C@H](COP(=O)([O-])OP(=O)(O)OC[C@H]3O[C@@H](n4cnc5c(N)ncnc54)[C@H](OP(=O)(O)O)[C@@H]3O)[C@@H](O)[C@H]2O)c1 | 0.154 | 0.9 | 0.92 | 0.76 |
| O=c1cc(-c2ccccc2)oc2cc(O)cc(O)c12 | 0.193 | 1.14 | 1.3 | 0.748 |
| COc1cc(Cc2cnc(N)nc2N)cc(OC)c1OC | 0.17 | 1.01 | 1 | 0.784 |
| O=C1N=C(O)CN1/N=C/c1ccc(-c2ccc([N+](=O)[O-])cc2)o1 | 0.107 | 0.92 | 1.02 | 0.927 |
| Nc1ccn(C2O[C@H](CO)[C@@H](O)[C@H]2O)c(=O)n1 (stereo not given in full) | 0.623 | 0.94 | 0.98 | 0.771 |
| Cc1c(C)c2c(c(C)c1O)CCC(C)(CCCC(C)CCCC(C)CCCC(C)C)O2 (stereo not given) | 0.0746 | 0.89 | 0.89 | 0.602 |
| CN(C)C(=O)Oc1cccc([N+](C)(C)C)c1 | 0.181 and 0.0616 | 0.96 and 0.88 | 0.9 and 0.89 | 0.874 and 0.578 |
| NNCCc1ccccc1 | 0.0741 | 0.86 | 0.93 | 1.08 |
| CC1(C)O[C@@H]2CC3C4CCC5=CC(=O)C=C[C@]5(C)[C@@]4(F)[C@@H](O)C[C@]3(C)[C@]2(C(=O)CO)O1 (stereo not given in full) | 0.203 | 1.01 | 1.01 | 0.785 |
| CC(C)C[C@@H](NC(=O)OCC1c2ccccc2-c2ccccc21)C(=O)O | 0.438 | 1.32 | 1.23 | 1.1 |
| OC(Cn1cncn1)(Cn1cncn1)c1ccc(F)cc1F | 0.282 | 0.96 | 0.96 | 0.907 |
| C=CCc1ccc(O)c(OC)c1 | 0.136 | 0.87 | 0.86 | 0.776 |
| CN1CCN(C2=Nc3cc(Cl)ccc3Nc3ccccc32)CC1 | 0.149 | 0.81 | 0.79 | 0.988 |
| O=C(OCC(O)CO)c1ccccc1Nc1ccnc2cc(Cl)ccc12 (stereo not given) | 0.148 | 0.9 | 0.97 | 1.01 |
| CN(C(=O)CN(CCO)CC(=O)N(C)C(C)(C)Cc1ccccc1)C(C)(C)Cc1ccccc1 | 0.186 | 0.84 | 0.8 | 0.87 |
| CC(C)[N+](C)(CCOC(=O)C1c2ccccc2Oc2ccccc21)C(C)C | 0.547 | 0.98 | 0.85 | 0.959 |
| CC(C)Cc1ccc(C(C)C(=O)O)cc1 (stereo not given) | 0.0389 | 0.97 | 0.92 | 1.07 |
| Cc1cn([C@H]2C[C@H](N=[N+]=[N-])[C@@H](CO)O2)c(=O)[nH]c1=O | 0.206 | 0.83 | 0.78 | 1.62 |

| SMILES | signal change (36 h minus 0 h) [1] | SMN1 luciferase ratio [2] | SMN2 luciferase ratio [2] | normalised LDH release [3] |
| --- | --- | --- | --- | --- |
| CN1CCN(CCCN2c3ccccc3Sc3ccc(Cl)cc32)CC1 | 0.159 | 0.91 | 0.84 | 0.677 |
| O=C1CC2(CCCC2)CC(=O)N1CCCCN1CCN(c2ncccn2)CC1 | 0.0678 | 0.96 | 0.88 | 0.881 |
| CC(C)NCC(O)c1ccc2ccccc2c1 (stereo not given) | 0.312 | 0.9 | 0.95 | 1.25 |
| O=C(O)C1CCCNC1 (stereo not given) | 0.0956 | 0.84 | 0.91 | 0.967 |
| OC(CCN1CCCCC1)(c1ccccc1)c1ccccc1 | 0.304 | 0.94 | 0.94 | 1.08 |
| CCCCC(=O)O[C@H]1CCC2C3CCc4cc(O)ccc4C3CC[C@@]21C (stereo not given in full) | 0.0843 | 0.88 | 0.98 | 1.07 |
| COc1cc2nc(N3CCN(C(=O)c4ccco4)CC3)nc(N)c2cc1OC | 0.175 | 1.05 | 1.04 | 0.331 |
| OC(CCN1CCCCC1)(c1ccccc1)C1CCCCC1 (stereo not given) | 0.184 | 0.91 | 0.9 | 0.569 |
| CCN1CCN(C(=O)NC(C(=O)NC2C(=O)N3C(C(=O)O)=C(CSc4nnnn4C)CSC23)c2ccc(O)cc2)C(=O)C1=O (stereo not given) | 0.155 | 0.87 | 0.94 | 0.638 |
| COc1c2occc2c(OC)c2c(=O)cc(C)oc12 | 0.361 | 1 | 0.92 | 0.989 |
| CCOC(=O)C(Cc1ccc(O)cc1)NC(C)=O (stereo not given) | 0.189 | 0.95 | 1 | 1.03 |
| COc1ccc(CCC(=O)c2c(O)cc(O[C@@H]3O[C@H](CO)C(O)[C@H](O)C3O[C@@H]3O[C@@H](C)[C@H](O)[C@@H](O)[C@H]3O)cc2O)cc1O (stereo not given in full) | 0.192 | 0.85 | 0.91 | 0.711 |
| COCCc1ccc(OCC(O)CNC(C)C)cc1 (stereo not given) | 0.126 | 0.91 | 0.88 | 1.16 |
| Nc1ccc(S(=O)(=O)Nc2ncccn2)cc1 | 0.141 | 0.84 | 0.94 | 0.837 |
| CCCCCCCCCCCCCCCC(=O)OC/C=C(C)/C=C/C=C(C)/C=C/C1=C(C)CCCC1(C)C | 0.346 | 0.84 | 0.92 | 0.879 |
| CN1CCN(CCC=C2c3ccccc3Sc3ccc(S(=O)(=O)N(C)C)cc32)CC1 | 0.102 | 1 | 0.96 | 0.403 |
| CC1=CC(=O)c2ccccc2C1=O | 0.114 | 1.08 | 1.13 | 0.418 |
| CC1CCCC(C)N1NC(=O)c1ccc(Cl)c(S(N)(=O)=O)c1 (stereo not given) | 0.0762 | 0.93 | 0.96 | 1.01 |
| COC(=O)Nc1nc2ccc(Sc3ccccc3)cc2[nH]1 | 0.19 | 0.93 | 1.09 | 1.11 |
| CCCCOc1ccc(C(=O)CCN2CCCCC2)cc1 | 0.189 | 0.93 | 0.86 | 1.24 |
| CC(=O)OCC(=O)[C@@]1(O)[C@H](OC(C)=O)CC2C3CCC4=CC(=O)C=C[C@]4(C)[C@@]3(F)[C@@H](O)C[C@@]21C (stereo not given in full) | 0.126 | 0.96 | 0.95 | 0.488 |
| NC(=O)NO | 0.0993 | 0.83 | 0.79 | 0.872 |
| CO[C@@H]1[C@@H](OC(N)=O)[C@@H](O)[C@H](Oc2ccc3c(O)c(NC(=O)c4ccc(O)c(CC=C(C)C)c4)c(=O)oc3c2C)OC1(C)C | 0.149 | 0.9 | 0.98 | 0.964 |
| CCCCC1C(=O)N(c2ccccc2)N(c2ccccc2)C1=O | 0.0795 | 0.94 | 0.92 | 0.72 |
| N.N.O=C(O)C1(C(=O)O)CCC1.[Pt] | 0.138 | 0.73 | 0.73 | 1.11 |
